In all, about 31,000 sequences went through this assay and about 1,400 (4.5%) were called active.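 The calls were made as follows: active = median seed-adjusted z-score above 1 or below -1; inactive = the rest.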 This is one part of the list.

The assay is described as follows: Novel Modifiers of Survival Motor Neuron (SMN) Protein: Gene Identification via Genome-wide siRNA Screen.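 Also: luminescence tracks full-length SMN protein made from the SMN2 reporter.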 The following applies: HEK293T SMN2-luciferase reporter, siRNA knockdown, 72 h; actives lie on both sides. The procedure, abridged:
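HEK293T cells stably carrying an SMN2 promoter/splicing cassette–luciferase reporter were reverse-transfected with 1 pmol siRNA per well (druggable-genome library, 3 siRNAs per gene) and grown 72 h at 37 °C. Luminescence, normalized to negative-control siRNA and log10-transformed, was scored as MAD.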
In general terms: Reporter assays use an easily measured gene product as a stand-in for the process of interest.
With GGCUAAUUCUAGAUGACAATT against RXFP2, the median seed-adjusted z-score is inactive: 0.511.
GGAGUUGUUCAAGUAGAAATT against GNL2: the median seed-adjusted z-score was inactive: 0.739.
With GGAAAAUUGACAAUGUUGATT against ENTPD6 the figure was inactive: 0.438.
Regarding GCUUUGUGCUCAUUACCUUTT against SMO, the median seed-adjusted z-score is inactive: -0.457.
Take GUAGGACAGUAGAAACUGATT against ZNF81: the median seed-adjusted z-score is inactive: 0.178.
As for GUAUCGCAUUUCUACAGCATT against SAMHD1, the figure is active: -1.33.
Turning to GACUAAAUCAGUUACCGAATT against MED17, the median seed-adjusted z-score is active: -2.06.
In the case of AAAGGACUCAGCUUCCUUATT against TYSND1, the median seed-adjusted z-score is inactive: -0.0298.
In the case of GAGCCGAGGAAAUAGCUUATT against MTCH2, the median seed-adjusted z-score is inactive: -0.168.
Regarding GGAACUACGUCCACACCCATT against GHRHR, the median seed-adjusted z-score is inactive: 0.
For AGAGUUGCAUAGCCCAGUATT against RNASE10, the median seed-adjusted z-score is inactive: -0.109.
For GUUCUUUGCGGAAAAUGAATT against THBS2, the median seed-adjusted z-score was inactive: -0.721.
Turning to CUGGAAGUGUUAUUCCUAATT against FOXD4L1, the median seed-adjusted z-score was inactive: 0.271.
As for GGAACAAGUUUUCAGGGUUTT against LCN10, the figure is inactive: 0; as for GGUGGUUCCUAUUCACCAATT against KCNJ8, inactive: 0.329.
In the case of AGAUAUAGCUUCACAAUCUTT against BCL2L13, the median seed-adjusted z-score is inactive: 0.311.
As for CCACUGACAUUGAUCUCAATT against CIC, the median seed-adjusted z-score was inactive: 0.756.
On to GAACAAGACAGUUCGCAAATT against GPR161, for which the median seed-adjusted z-score is inactive: -0.138.
As to GAACUAGUGAUAUCCGGAATT against EXOG, the median seed-adjusted z-score was inactive: 0.746.
GCUCUUGGAUUAAAAGGUATT against STAR: the median seed-adjusted z-score was inactive: 0.478.
Consider ACAAAACAUUUCAGACUCATT against ZNF716, for which the median seed-adjusted z-score was inactive: 0.
Turning to GAACCUCUGCUCUUCAAGATT against LRRC4B, the median seed-adjusted z-score was inactive: 0.288.
For the sequence GAAGAAGCCGUGAACUUCATT against ILKAP, the median seed-adjusted z-score was inactive: 0.
With GAAACGGGAUUUUUCGAUUTT against OCA2, the median seed-adjusted z-score is inactive: 0.457.
As for GGUCUACACUGUGCAGGAATT against MAN2B2, the figure is inactive: 0.0555; as for GGUUGAUGCAGACAACAAATT against LGTN, inactive: 0.491; as for GGGUAGGUGAUAUCCAUAUTT against ZBTB5, inactive: 0.314.
As for GAACGAGACAAGAAUCAGATT against EIF4E2, the figure is inactive: 0.0495.
In the case of GCCGAAUCCUGAAGAGACATT against QTRTD1, the median seed-adjusted z-score was inactive: 0.377.
Take CCACAUCAACAGUGCCUUUTT against ACOT11: the median seed-adjusted z-score was inactive: 0.636.
Turning to GAUCAGGACUUUAUGUUCATT against ZNF225, the median seed-adjusted z-score was inactive: 0.0761.
In the case of CAGCAACCAAUGAUAUAUATT against POLR2K, the median seed-adjusted z-score was active: -3.72.
Take AGUACGGACAGAUCUCUGATT against CIRBP: the median seed-adjusted z-score is inactive: -0.701.
As for GGAUGCUCUUUGGAACAAATT against SLC2A12, the median seed-adjusted z-score was inactive: -0.373.
As for CAUCAAUGACUCACCCUUUTT against RTN4R, the figure is inactive: -0.536.
On to CACUUGAAGAUCAUCCAAATT against MBTPS1, for which the median seed-adjusted z-score is inactive: -0.551.
Consider CGUGUGCGAUCACCCGAAATT against KLK11, for which the median seed-adjusted z-score was inactive: 0.0411.
As for UCAUCGGCGUGAUCGUGUATT against CACNG8, the median seed-adjusted z-score is inactive: 0.214.
As for GAUUCACCAAUGUCAAACATT against GLCE, the figure is inactive: 0.752.
CGGAAUCAUCUACACCUAUTT against CNR2: the median seed-adjusted z-score is inactive: 0.33.
As for CUAGAGUCGCUGUUGAAGATT against DRAP1, the figure is active: 1.08; as for CCUCUCAUCUAGUAGAAGATT against MYB, inactive: 0.307.
In the case of AGUGCAUCGCAUCUGCCUATT against RAB36, the median seed-adjusted z-score was inactive: -0.348.
With GAACAGUGCUUGAGGAUAUTT against ANGPTL1, the median seed-adjusted z-score is inactive: -0.556.
As to GGAUCAACCAGACGGAAAATT against CELSR1, the median seed-adjusted z-score is inactive: -0.466.
Take GGAGAGUUAAGAUCAAUGUTT against KCNB2: the median seed-adjusted z-score was active: 1.22.
As for CCUGCACUAAAUUACUCAATT against COX5B, the figure is inactive: 0.45; as for GGACGGUCGUGAUGGAUAATT against SAFB2, inactive: 0.0394; as for GGAUCACUGCAAAACUCAATT against PFKP, inactive: -0.352.
Consider GGUUAGAGUUCACACUUGATT against ICMT, for which the median seed-adjusted z-score is inactive: -0.0602.
Consider GCUUCCCUGCUAUUGCUUUTT against GPR176, for which the median seed-adjusted z-score was inactive: 0.0782.
As for CACUUAUACUAACGGUUAATT against DSG3, the figure is inactive: 0; as for GGUUGACAAAUGCAGGAUATT against RIOK2, inactive: -0.16.
As to CGUUAUCUUCAGUACUGCATT against C3orf64, the median seed-adjusted z-score is inactive: 0.0771.
Turning to GCUAUGGACUGGUCAUUUATT against ATP8B3, the median seed-adjusted z-score is inactive: 0.
Consider GCAAGUUUGGAAACGUGUATT against AURKB, for which the median seed-adjusted z-score is inactive: 0.0901.
For GUGAUGUACUCAUUCAAGATT against USP20, the median seed-adjusted z-score is inactive: -0.369.
In the case of AAAGCAAAGUUCCAAGAGATT against ANXA13, the median seed-adjusted z-score is inactive: -0.467.
As to CCACAUCUAGCUCAACAUATT against ZNF43, the median seed-adjusted z-score was inactive: 0.29.
With AGACCGUGAUUCCCAGGAATT against CNDP2 the figure was inactive: 0.43; with GCAACUCAGUUGGUGGAUUTT against RAB39, inactive: -0.408; with CCAUGCACUCAAUAAAGAATT against KLK6, inactive: 0.176.
On to CGCAAGAGCAUGAUCAUCATT against KCNJ11, for which the median seed-adjusted z-score is inactive: -0.567.
With AGAUCCACCUGAUGCAGAATT against SYT2, the median seed-adjusted z-score is inactive: 0.243.
On to CACCCUAGCUGGAACUCUATT against CTRL, for which the median seed-adjusted z-score was inactive: 0.0758.
For GCGUGGAUAUUUACCUGGATT against IFT140, the median seed-adjusted z-score is inactive: -0.0152.
On to GGAGACAAGUGUAAUCUUATT against OSBP, for which the median seed-adjusted z-score is inactive: 0.256.
For CCUGGACCCUGAACUCACATT against LILRA4, the median seed-adjusted z-score was inactive: 0.109.
As to GAAUUACGCAGAAAAUGAUTT against FARS2, the median seed-adjusted z-score is inactive: 0.587.
As for GGAUGUACAUGAUGCCCUUTT against MTRR, the figure is inactive: -0.381; as for GAGCAUCAAGUCAUCCAUATT against PPFIA3, inactive: -0.0669.
With CCUGGGUCGCAACAUCUUUTT against SYTL1 the figure was inactive: 0.0856; with GCGGAGGAGUUCACCUAUATT against RBP3, inactive: 0; with CCAGAGUCACUGCUCAUUATT against BTBD11, inactive: -0.00434.
Regarding GGUUAAAGCUCAAAAACGATT against ZNF75A, the median seed-adjusted z-score is inactive: 0.303.
For the sequence GGACUUCAGUGAGCUAGAATT against PYGL, the median seed-adjusted z-score is inactive: 0.166.
CUCAAGACCUUUAUAGCUATT against CLCN2: the median seed-adjusted z-score is inactive: -0.0786.
On to GGAUGUCUAUGGAUACCAATT against GANC, for which the median seed-adjusted z-score was inactive: 0.799.
On to GCUUUCUAUCGAUCCUCAATT against ZNF681, for which the median seed-adjusted z-score was inactive: 0.271.
GGACUACUAUGCCACUGCUTT against SSTR4: the median seed-adjusted z-score is inactive: -0.00217.
For CGCUCCUUGUCAAAAGAAATT against KCNS3, the median seed-adjusted z-score is inactive: 0.103.
For CAAAUGAACUGGACAUUAATT against ZNF786, the median seed-adjusted z-score is inactive: -0.518.
Consider GGACAUUGAUUAUAUUGGATT against GALC, for which the median seed-adjusted z-score was inactive: 0.
For ACUUGUACCUGUCCCAUAATT against CHAD, the median seed-adjusted z-score is inactive: 0.
For the sequence GCCUAUAUCUCACGCUCUATT against ZFP62, the median seed-adjusted z-score is inactive: -0.255.
On to GGAUUUGCAGGAGUAUAUUTT against SLC35A1, for which the median seed-adjusted z-score is inactive: 0.00794.
With CAGCAUUGCUCUUAAGGUUTT against USP6, the median seed-adjusted z-score is inactive: -0.285.
For GGAUCUAUCUCAUCAAACATT against NDUFC1, the median seed-adjusted z-score was inactive: 0.
Take CCUGAAACCUCAGAACUUATT against PFTK2: the median seed-adjusted z-score was active: -1.16.
As to GGAGGAAGAUGGACCGGAUTT against NPPB, the median seed-adjusted z-score is inactive: -0.973.
With GGCAUGACCUCAUCACAGUTT against RNASE7 the figure was active: 1.07; with GACAAGUGGUUAACUGGUUTT against AADAT, inactive: 0.0891.
Take AAGAGAGAUUUGAUAGUUATT against TRIM21: the median seed-adjusted z-score is inactive: 0.524.
In the case of UGUCAGAUCUGUUUCAAUUTT against RNF152, the median seed-adjusted z-score was inactive: -0.745.
For CGAGCAAUAAGUCCAUGGATT against ACOT7, the median seed-adjusted z-score is inactive: 0.665.
Turning to CACCGAGUCGGAAUACUAUTT against TGFB3, the median seed-adjusted z-score is inactive: -0.354.
Regarding AGCACAAUAUAAUAGUGGATT against GPR148, the median seed-adjusted z-score is inactive: 0.
As for ACAAAGCUGCUGUGCUAUATT against BET1, the figure is inactive: 0.394; as for UGAGAUUUCCAAUUCCCAATT against ZNF641, inactive: 0.233.
As for GUGUCUACAUCUAACAAGATT against ZKSCAN2, the median seed-adjusted z-score was inactive: -0.0343.
As for GGAUGAAGACUAUAGGGUATT against PHGDH, the figure is inactive: 0.108; as for GGAGCUCGAUCACCACUUATT against MAML3, inactive: -0.412.
For GGAUGCUGGAUAAUCGGAATT against UBP1, the median seed-adjusted z-score is inactive: 0.847.
Turning to GCCUGAACCUCAUCCUUAUTT against ENPP1, the median seed-adjusted z-score was inactive: -0.273.
As for GGACGUAAGGGACUCAAAATT against HSD17B1, the median seed-adjusted z-score is inactive: -0.569.
In the case of CCAUUGUCUAUGCUACGGATT against KCTD13, the median seed-adjusted z-score is inactive: -0.273.
With CGUCUACCGAGAUCUGAAATT against GRK5 the figure was inactive: -0.377; with GCACUUUCCCGCCUCUUUATT against PRSS16, inactive: -0.0226.

Values taken from PubChem BioAssay AID1347426 (Functional Genomics Laboratory (NCATS/FGL), 2020).
